Data on two molecules can be found in patent US20230073692A1 (CYTOMX THERAPEUTICS, published 2023).

Positions count from the first letter of the chain named. Names may count otherwise. Results are given in words; binding and its absence hold for the method and conditions named. A result given as binding can be weak or reduced; the word gives no strength.

The assay concerns the target SLC34A2. Description: paralog/homolog binding assessment (FIG. 2).

B1: cHv83-3a23.G1(L328C)k (antibody, V domains shown)
VH: EVQLVESGGGLVQPGGSLRLSCAASGFTFSSYVMHWVRQAPGKGLEYVSGVSSSGDSTFYVDSVKGRFTISRDNSKNTLYLQMGSLRAEDMAVYYCARGGITGAPLVFDIWGQGTMVTVSS
VL: DIQMTQSPSSLSASVGDRVTITCRASQSISRFLNWYQQKPGKAPKVLIYVTSSLQSGVPSRFSGSGSGTDFTLTISSLQPEDFATYYCQQSYNTPITFGQGTRLEIKR
notes: the name says L328C in the IgG1 constant region; also called [Ag]AB-2; unconjugated antibody of OT1 / OT#1
Take B1: the binding result is “binds”.

B2: cHv83-1b15.G1(L328C)k (antibody, V domains shown)
VH: EVQLVESGGGWVQPGGSLRLSCAASGFTFSSHIMYWVRQAPGKGLEYVSGISSNGLSSYYVDSVKGRFTISRDNSKNLLYVHMGSLKPEDMAMYYCARGGRDRVPAVFDYWGQGTLVTVSS
VL: B1 VL with V15I, S30G, R31T, T51A, S63I, N93S, T94V
notes: the name says L328C in the IgG1 constant region; also called [Ag]AB-3; cHv83-1b15.G1k(L328C)k
As for B2, the binding entry is “binds”.
